Test results reported in patent US20240287368A1, “COMPOSITION CONTAINING REFRIGERANT, USE OF SAME, REFRIGERATOR HAVING SAME, AND METHOD FOR OPERATING SAID REFRIGERATOR” (DAIKIN INDUSTRIES, LTD., priority 2021, published 2024).

Experiment: GWP of mixed refrigerants evaluated from IPCC fourth report values
Conditions: GWP of HFO-1132(E) set to 1; for GWP(AR4): IPCC fourth report

Structure (SMILES) | GWP (R32 and R152a per IPCC fourth report) | GWP(AR4)
CC(F)F [2-5, 1,1-difluoroethane] | 124 | –
C=C(F)C(F)(F)F [3-1] | – | 4
FCC(F)(F)F [compound 1] | – | 1430
